From article PMC1382259
Results are given in words; binding and its absence hold for the method and conditions named. Binding seen in cells or lysates may run through a third protein. Some entries that bind do so weakly or less than the wild type. For part of these data: Where a sequence is shown, tags or fusion partners need not be part of it.

Sequences of proteins named here, by UniProt entry; tags and fusion partners are left off. A change or cut given only in a name is not applied to a line headed by its entry.
UniProt P62136: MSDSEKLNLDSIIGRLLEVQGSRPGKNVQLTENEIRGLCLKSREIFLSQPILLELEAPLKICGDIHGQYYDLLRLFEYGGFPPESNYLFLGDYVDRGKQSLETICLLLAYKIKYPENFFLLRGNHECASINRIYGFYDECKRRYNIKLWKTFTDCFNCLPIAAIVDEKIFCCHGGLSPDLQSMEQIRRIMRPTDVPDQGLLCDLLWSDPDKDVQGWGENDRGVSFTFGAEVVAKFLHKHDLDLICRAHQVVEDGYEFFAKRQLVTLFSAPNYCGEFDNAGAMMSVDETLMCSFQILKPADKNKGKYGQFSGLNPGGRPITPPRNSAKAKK
UniProt P36873: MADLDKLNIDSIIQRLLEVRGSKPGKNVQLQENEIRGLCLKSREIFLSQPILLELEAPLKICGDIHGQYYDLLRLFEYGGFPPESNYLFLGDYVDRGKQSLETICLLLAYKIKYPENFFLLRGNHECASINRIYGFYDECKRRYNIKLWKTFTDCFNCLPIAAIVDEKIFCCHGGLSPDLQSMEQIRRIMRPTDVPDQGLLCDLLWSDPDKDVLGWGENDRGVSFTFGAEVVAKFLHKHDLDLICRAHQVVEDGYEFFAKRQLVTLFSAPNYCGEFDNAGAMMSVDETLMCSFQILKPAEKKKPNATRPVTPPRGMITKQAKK
UniProt P62140: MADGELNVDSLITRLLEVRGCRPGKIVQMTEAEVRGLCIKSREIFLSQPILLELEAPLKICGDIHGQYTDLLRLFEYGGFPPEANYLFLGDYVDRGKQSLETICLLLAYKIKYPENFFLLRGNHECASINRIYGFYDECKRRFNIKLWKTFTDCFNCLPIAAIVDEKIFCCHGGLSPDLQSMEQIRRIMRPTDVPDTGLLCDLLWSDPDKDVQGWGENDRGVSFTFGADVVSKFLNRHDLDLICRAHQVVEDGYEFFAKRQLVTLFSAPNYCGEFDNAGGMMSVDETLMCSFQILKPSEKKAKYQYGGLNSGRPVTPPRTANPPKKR

Assays:
[1] = target: T1, GST-Rb-C-terminal (RbCT, residues 792-928) (UniProt P06400); assay: pull-down; data not shown: affinity columns with GST- or pMAL-RbBP and GST- or pMAL-RbCT, mitotic or asynchronous HeLa extracts; PP1 activity peak, gel filtration; only the target purified
T1 sequence: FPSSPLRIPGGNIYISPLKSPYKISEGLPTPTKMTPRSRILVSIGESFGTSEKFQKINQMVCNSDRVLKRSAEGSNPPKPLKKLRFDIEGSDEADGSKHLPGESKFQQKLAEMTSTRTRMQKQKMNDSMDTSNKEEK

[2] = target: T2, GST-Rb-big pocket (RbBP, residues 379-928) (UniProt P06400); assay: as above
T2 sequence: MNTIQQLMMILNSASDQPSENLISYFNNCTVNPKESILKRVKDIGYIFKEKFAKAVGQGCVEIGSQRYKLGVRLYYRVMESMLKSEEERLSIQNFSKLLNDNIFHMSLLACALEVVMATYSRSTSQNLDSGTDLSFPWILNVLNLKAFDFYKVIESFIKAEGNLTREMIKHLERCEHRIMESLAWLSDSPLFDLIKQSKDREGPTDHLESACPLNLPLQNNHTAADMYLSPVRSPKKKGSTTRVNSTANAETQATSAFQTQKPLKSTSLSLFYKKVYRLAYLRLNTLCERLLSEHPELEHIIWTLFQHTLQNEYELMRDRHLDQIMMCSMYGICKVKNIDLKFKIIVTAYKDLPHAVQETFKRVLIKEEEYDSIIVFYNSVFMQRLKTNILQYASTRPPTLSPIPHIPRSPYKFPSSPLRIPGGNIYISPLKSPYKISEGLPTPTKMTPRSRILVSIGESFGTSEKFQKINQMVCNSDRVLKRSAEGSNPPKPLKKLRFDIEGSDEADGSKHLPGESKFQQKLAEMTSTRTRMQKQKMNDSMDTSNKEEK

[3] = target: T3, pMAL-RbBP (Rb big pocket, residues 379-928) (UniProt P06400); assay: as above
T3 sequence: T2 sequence

[4] = target: T4, pMAL-RbCT (Rb C-terminus, residues 792-928) (UniProt P06400); assay: as above
T4 sequence: T1 sequence

[5] = target: T3, pMAL-RbBP (Rb big pocket, residues 379-928); assay: pull-down; pMAL fusion proteins from bacterial extracts on Amylose resin, mixed with mitotic HeLa cell lysate (2.5 mg/PD), 4°C 90 min, washed in cell lysis buffer; immunoblot with isoform-specific antibodies; only the target purified
[6] = target: T4, pMAL-RbCT (Rb C-terminus, residues 792-928); assay: as above
[7] = target: T5, Full-length GST-pRb (UniProt P06400); assay: pull-down; affinity chromatography: 40 mg mitotic HeLa extract on a 1 ml GST-Rb-Sepharose column, eluted with 300 mM NaCl; fractions assayed for PP1 activity, pool immunoblotted for the PP1 isoforms, then gel filtration on Superose 12; only the target purified
T5 sequence: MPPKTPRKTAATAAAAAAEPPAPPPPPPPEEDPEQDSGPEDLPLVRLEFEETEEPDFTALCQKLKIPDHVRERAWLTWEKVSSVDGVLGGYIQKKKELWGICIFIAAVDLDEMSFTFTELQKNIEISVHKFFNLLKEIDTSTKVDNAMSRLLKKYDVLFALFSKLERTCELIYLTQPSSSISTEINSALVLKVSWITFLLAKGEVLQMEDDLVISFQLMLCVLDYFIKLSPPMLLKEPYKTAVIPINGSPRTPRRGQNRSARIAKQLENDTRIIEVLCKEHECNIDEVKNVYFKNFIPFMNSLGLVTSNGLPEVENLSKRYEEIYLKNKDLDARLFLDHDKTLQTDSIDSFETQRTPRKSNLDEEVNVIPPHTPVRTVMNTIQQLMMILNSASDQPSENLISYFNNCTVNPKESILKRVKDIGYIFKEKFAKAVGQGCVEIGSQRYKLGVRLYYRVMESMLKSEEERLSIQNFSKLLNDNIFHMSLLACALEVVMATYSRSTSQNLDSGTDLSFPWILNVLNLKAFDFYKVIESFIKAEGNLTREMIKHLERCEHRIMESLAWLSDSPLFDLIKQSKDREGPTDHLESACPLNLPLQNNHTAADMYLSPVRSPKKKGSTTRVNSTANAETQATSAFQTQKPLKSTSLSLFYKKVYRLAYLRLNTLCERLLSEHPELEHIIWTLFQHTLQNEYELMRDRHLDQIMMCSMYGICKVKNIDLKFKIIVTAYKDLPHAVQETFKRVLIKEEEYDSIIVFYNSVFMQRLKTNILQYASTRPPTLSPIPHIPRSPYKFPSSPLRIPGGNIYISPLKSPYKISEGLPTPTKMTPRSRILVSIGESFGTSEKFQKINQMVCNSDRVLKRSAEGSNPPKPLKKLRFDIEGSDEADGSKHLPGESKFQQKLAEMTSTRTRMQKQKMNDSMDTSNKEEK

[8] = target: T5, Full-length GST-pRb; assay: pull-down; GST fusion proteins from bacterial extracts on glutathione-Sepharose beads (pre-treated with BSA), mixed with 2-3 mg of mitotic or asynchronous HeLa cell extract, 4°C 90 min, washed in 50 mM TRIS-HCl pH 7.5, 250 mM NaCl, 5 mM EDTA, 0.1 % Triton X-100; immunoblot with isoform-specific antibodies; only the target purified
[9] = target: T2, GST-Rb-big pocket (RbBP, residues 379-928); assay: as above

Measured: binding

PP1α catalytic subunit (from UniProt P62136 1-330) (enzyme)
binds: all assays above

PP1γ1 catalytic subunit (from UniProt P36873 1-323) (enzyme)
binds: all assays above

PP1δ catalytic subunit (from UniProt P62140 1-327) (enzyme)
binds: all assays above
